Assay results from doi:10.1101/2023.08.07.552315 (bioRxiv, 2023).
No constants are given. Whether binding was seen depends on the method and setting. Some binding calls cover weakened binding; strength is not graded here.

The chains behind the UniProt entries cited, without tags or fusion partners.
UniProt Q9H081: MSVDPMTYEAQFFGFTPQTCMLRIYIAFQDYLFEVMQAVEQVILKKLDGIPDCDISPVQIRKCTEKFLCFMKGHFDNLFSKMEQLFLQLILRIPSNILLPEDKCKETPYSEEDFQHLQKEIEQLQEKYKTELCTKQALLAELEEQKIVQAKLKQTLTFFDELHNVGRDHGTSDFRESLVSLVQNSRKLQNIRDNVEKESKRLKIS

Tests used:
[1] = target: T1, DSN1 (subunit of the Mis12 complex in the KMN cryo-EM sample) (human) (UniProt Q9H410); experiment: cryo-EM structure
T1 sequence: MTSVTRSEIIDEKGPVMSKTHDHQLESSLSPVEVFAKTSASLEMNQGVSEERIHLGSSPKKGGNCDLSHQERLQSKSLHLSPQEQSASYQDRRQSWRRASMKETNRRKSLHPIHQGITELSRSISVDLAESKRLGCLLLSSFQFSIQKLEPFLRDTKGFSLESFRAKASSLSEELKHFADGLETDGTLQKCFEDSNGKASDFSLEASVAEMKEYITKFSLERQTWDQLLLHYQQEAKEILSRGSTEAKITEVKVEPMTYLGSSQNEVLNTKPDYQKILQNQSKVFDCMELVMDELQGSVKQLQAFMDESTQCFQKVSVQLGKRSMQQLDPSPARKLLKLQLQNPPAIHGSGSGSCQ

[2] = target: MIS12 (subunit of the Mis12 complex in the KMN cryo-EM sample) (human) (UniProt Q9H081); experiment: cryo-EM structure

B1: PMF1 (subunit of the Mis12 complex in the KMN cryo-EM sample) (protein, UniProt Q6P1K2 1-205)
chain: MAEASSANLGSGCEEKRHEGSSSESVPPGTTISRVKLLDTMVDTFLQKLVAAGSYQRFTDCYKCFYQLQPAMTQQIYDKFIAQLQTSIREEISDIKEEGNLEAVLNALDKIVEEGKVRKEPAWRPSGIPEKDLHSVMAPYFLQQRDTLRRHVQKQEAENQQLADAVLAGRRQVEELQLQVQAQQQAWQALHREQRELVAVLREPE
- binding [1]: binds
- binding [2]: binds
